Values from PubChem BioAssay AID1159578 (Peter MacCallum Cancer Centre, 2015)
Test: 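Knock-downs that alter how fast lymphatic endothelial cells migrate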 (primary screen). Cell system: human lymphatic endothelial cells. Reagent: siRNA pool against human genes, 40 nM. Timing: 48 h after transfection. Detection: 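Cells stained with dye and imaged after a scratch; covered wound area and nuclei counted, duplicates averaged, migration set against mock wells and turned into a robust z-score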. Reading the numbers: migration robust z-score: higher = faster migration into the scratch; nuclei per well: higher = more cells in the well. Call rule: 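Migration changed when robust z exceeds 2 or falls below -2 and mean nuclei number is at least 3300; otherwise not called changed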. Meaning of the calls: active = migration changed; inactive = no migration change, or too few cells.
In all, the deposit lists about 18,000 reagents; below is an unselected part. About 1,030 of them (5.7%) were called active. 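Inactive calls also include pools with fewer than 3300 nuclei, whose migration was not assessed.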 Raw values are not corrected between plates. Unmarked entries are inactive. Further read-outs or replicates are left out here.

OR1D5 (olfactory receptor family 1 subfamily D member 5)
- migration robust z-score: 0.73
- nuclei per well, duplicate mean: 6226

LRMDA (leucine rich melanocyte differentiation associated)
- migration robust z-score: -1.38
- nuclei per well, duplicate mean: 5016

GABBR2 (gamma-aminobutyric acid type B receptor subunit 2)
- migration robust z-score: -0.46
- nuclei per well, duplicate mean: 4846

HYAL2 (hyaluronidase 2)
- migration robust z-score: -1.19
- nuclei per well, duplicate mean: 5048

SEC11C (SEC11 homolog C, signal peptidase complex subunit)
- migration robust z-score: 1.15
- nuclei per well, duplicate mean: 5168

SSR1 (signal sequence receptor subunit 1)
- migration robust z-score: 0.39
- nuclei per well, duplicate mean: 5106

PXDN (peroxidasin)
- migration robust z-score: -0.47
- nuclei per well, duplicate mean: 5754

CENPM (centromere protein M)
- migration robust z-score: -1.46
- nuclei per well, duplicate mean: 4947

CBX3 (chromobox 3)
- migration robust z-score: 0.41
- nuclei per well, duplicate mean: 4788

DRG2 (developmentally regulated GTP binding protein 2)
- migration robust z-score: -0.7
- nuclei per well, duplicate mean: 4768

PGM1 (phosphoglucomutase 1)
- migration robust z-score: 0.02
- nuclei per well, duplicate mean: 6252

NVL (nuclear VCP like)
- migration robust z-score: 0.37
- nuclei per well, duplicate mean: 4753

SLCO4C1
- migration robust z-score: -1.19
- nuclei per well, duplicate mean: 3814

NMT1 (N-myristoyltransferase 1)
- migration robust z-score: -0.02
- nuclei per well, duplicate mean: 8389

Entries listed so far whose target name begins with P or p:
PXDN (peroxidasin)
- migration robust z-score: -0.47
- nuclei per well, duplicate mean: 5754

PGM1 (phosphoglucomutase 1)
- migration robust z-score: 0.02
- nuclei per well, duplicate mean: 6252

Next reagents:
SLC66A1
- migration robust z-score: -0.2
- nuclei per well, duplicate mean: 5622

TMEM106A (transmembrane protein 106A)
- migration robust z-score: 1.71
- nuclei per well, duplicate mean: 6104

TSPYL4 (TSPY like 4)
- migration robust z-score: -0.38
- nuclei per well, duplicate mean: 5644

PRAM1 (PML-RARA regulated adaptor molecule 1)
- migration robust z-score: 0.24
- nuclei per well, duplicate mean: 3676

TAF7L (TATA-box binding protein associated factor 7 like)
- migration robust z-score: 0.42
- nuclei per well, duplicate mean: 5841

KLC4 (kinesin light chain 4)
- migration robust z-score: 0.98
- nuclei per well, duplicate mean: 4898

DCAF16 (DDB1 and CUL4 associated factor 16)
- migration robust z-score: -0.87
- nuclei per well, duplicate mean: 6642
